From PubChem BioAssay AID200 (DTP/NCI, 2004)
The list is a part of this screen's results and no random one: it gathers tests that were run many times, whatever their T/C, doses with no T/C, and many T/C values between a quarter and a half above the control. Other doses and runs of a compound stand elsewhere. T/C gives the treated animals as a percentage of the vehicle group. Some doses have a count of surviving animals in place of a T/C: the source files T/C as zero there, which appears to mark a toxic dose or a test without result, not a measured value. Some doses without a T/C left all or most animals alive at the check, yet need not have been tolerated: survival well below the control is almost never listed, so the zero probably covers shortened survival too. Survivors were counted at the toxicity check, usually on the fifth day, unless a day is given; later deaths do not show. Schedules are NCI's codes, read here as Q, the interval in days (D) or hours (H), X, the number of doses. For survival time, this PubChem deposit counts one and a half times the control or more as active, and values a quarter to a half above the control carry no call in these data; other NCI protocols may use other cut-offs. Some doses were run more than once; their values stand side by side, smallest first.

Tested on: B6C3F1 mice, B16 melanoma ip, median survival T/C
Assay: NCI In Vivo Anticancer Drug Screen. Data for tumor model B16 Melanoma (intraperitoneal) in B6C3F1 mice
Details: T/C endpoint: median survival time, schedule: Q01DX009 (ip), higher T/C = longer survival
Method in brief: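 Antitumor effect was judged in mice with transplanted tumors by dividing the treated group's survival measure by that of vehicle controls.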

[1] = dose: 50.0 mg/kg/injection, vehicle: other
[2] = dose: 50.0 mg/kg/injection, vehicle: Klucel (hydroxypropylcellulose) (HPC)
[3] = dose: 32.0 mg/kg/injection, vehicle: saline

Compound: CC[C@@]1(O)C[C@H](OC2CC(N(C)C)C(OC3CC(O)C(OC4CCC(=O)C(C)O4)C(C)O3)C(C)O2)c2c(cc3c(c2O)C(=O)c2c(O)cccc2C3=O)[C@H]1C(=O)OC (stereo partly drawn)
- T/C (dose: 0.75 mg/kg/injection, vehicle: saline with Tween-80): 125 % of control
- T/C (dose: 1.5 mg/kg/injection, vehicle: saline with Tween-80): 132 % of control

Compound: CCCn1cc2c3c(cccc31)C1C=C(C)CN(C)C1C2 (stereo not drawn)
- survivor count [1]: 7 of 8
- survivor count (dose: 100.0 mg/kg/injection, vehicle: other): 0 of 8

Compound: CC(=O)OCC1OC(n2ccc(N)nc2=O)C(OC(C)=O)C1OC(C)=O (stereo not drawn)
- survivor count (dose: 400.0 mg/kg/injection, vehicle: saline): 9 of 10

Compound: O=C(C/C(=N\C(=S)Nc1cc(C(F)(F)F)ccc1Cl)NO)N1CCCC1
- survivor count (dose: 200.0 mg/kg/injection, vehicle: saline with Tween-80): 5 of 10
- survivor count (dose: 400.0 mg/kg/injection, vehicle: saline with Tween-80): 2 of 10

Compound: CCNC(=O)[B-][N+](C)(C)C
- survivor count [2]: 10 of 10
- survivor count (dose: 100.0 mg/kg/injection, vehicle: Klucel (hydroxypropylcellulose) (HPC)): 10 of 10
- survivor count (dose: 200.0 mg/kg/injection, vehicle: Klucel (hydroxypropylcellulose) (HPC)): 9 of 10

Compound: C/C=C1/C(=O)O[C@]23C=C[C@@H]4C(C(=O)OC)=CO[C@H](O[C@@H]12)[C@@H]43
- survivor count (dose: 30.0 mg/kg/injection, vehicle: Klucel (hydroxypropylcellulose) (HPC)): 6 of 10

Compound: CC1(C)N=C(N)N=C(N)N1c1ccc(CCCCc2ccc(S(=O)(=O)F)cc2Cl)c(Cl)c1
- T/C (dose: 3.12 mg/kg/injection, vehicle: saline with Tween-80): 126 % of control
- T/C (dose: 6.25 mg/kg/injection, vehicle: saline with Tween-80): 133 % of control
- T/C (dose: 12.5 mg/kg/injection, vehicle: saline with Tween-80): 142 % of control
- survivor count (dose: 25.0 mg/kg/injection, vehicle: other): 9 of 10
- survivor count [1]: 2 of 10
- T/C (dose: 50.0 mg/kg/injection, vehicle: saline with Tween-80): 131 % of control

Compound: CC1=C(C)C(=O)O[C@@H]([C@](C)(O)[C@]2(O)CC[C@@]3(O)[C@@H]4C[C@H]5O[C@]56[C@@H](O)C=CC(=O)[C@]6(C)[C@H]4CC[C@]23C)C1
- T/C (dose: 2.0 mg/kg/injection, vehicle: saline + alcohol): 146 % of control
- T/C (dose: 2.0 mg/kg/injection, vehicle: saline): 126 % of control
- T/C (dose: 2.0 mg/kg/injection, vehicle: suspension in saline): 130 % of control
- T/C (dose: 4.0 mg/kg/injection, vehicle: saline): 133 and 139 % of control
- T/C (dose: 4.0 mg/kg/injection, vehicle: suspension in saline): 142 % of control
- T/C (dose: 8.0 mg/kg/injection, vehicle: saline + alcohol): 140 % of control
- T/C (dose: 8.0 mg/kg/injection, vehicle: saline): 134 and 147 % of control
- T/C (dose: 8.0 mg/kg/injection, vehicle: suspension in saline): 143 % of control
- T/C (dose: 16.0 mg/kg/injection, vehicle: saline + alcohol): 134 % of control
- survivor count (dose: 32.0 mg/kg/injection, vehicle: saline + alcohol): 3 of 10
- T/C [3]: 132 % of control
- survivor count [3]: 9 of 10
- survivor count (dose: 32.0 mg/kg/injection, vehicle: suspension in saline): 9 of 10
- survivor count (dose: 64.0 mg/kg/injection, vehicle: suspension in saline): 0 of 10

Compound: CC1=C2C(=CO[C@H](C)[C@H]2C)C(=O)C(C(=O)O)=C1O
- survivor count (dose: 25.0 mg/kg/injection, vehicle: Klucel (hydroxypropylcellulose) (HPC)): 6 of 10
- survivor count [2]: 0 of 10
